# From the supplement of paper PMC10849652
# By UniProt entry, the sequences of proteins in these tests, tags left out. Where a name states a change or a piece, a line headed by the entry shows the natural chain unless it says otherwise.
# UniProt O00233: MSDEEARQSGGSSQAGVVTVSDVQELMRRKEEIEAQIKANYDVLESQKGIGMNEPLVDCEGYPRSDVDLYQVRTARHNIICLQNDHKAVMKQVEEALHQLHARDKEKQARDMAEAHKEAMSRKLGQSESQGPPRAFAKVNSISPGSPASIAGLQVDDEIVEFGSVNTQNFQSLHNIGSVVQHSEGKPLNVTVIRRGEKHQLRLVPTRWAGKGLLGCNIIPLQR
# UniProt Q03393: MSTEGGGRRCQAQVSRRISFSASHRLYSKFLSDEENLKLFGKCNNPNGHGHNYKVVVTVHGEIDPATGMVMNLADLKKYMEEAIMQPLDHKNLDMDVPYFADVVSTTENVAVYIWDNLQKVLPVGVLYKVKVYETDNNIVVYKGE
# UniProt Q8TB72: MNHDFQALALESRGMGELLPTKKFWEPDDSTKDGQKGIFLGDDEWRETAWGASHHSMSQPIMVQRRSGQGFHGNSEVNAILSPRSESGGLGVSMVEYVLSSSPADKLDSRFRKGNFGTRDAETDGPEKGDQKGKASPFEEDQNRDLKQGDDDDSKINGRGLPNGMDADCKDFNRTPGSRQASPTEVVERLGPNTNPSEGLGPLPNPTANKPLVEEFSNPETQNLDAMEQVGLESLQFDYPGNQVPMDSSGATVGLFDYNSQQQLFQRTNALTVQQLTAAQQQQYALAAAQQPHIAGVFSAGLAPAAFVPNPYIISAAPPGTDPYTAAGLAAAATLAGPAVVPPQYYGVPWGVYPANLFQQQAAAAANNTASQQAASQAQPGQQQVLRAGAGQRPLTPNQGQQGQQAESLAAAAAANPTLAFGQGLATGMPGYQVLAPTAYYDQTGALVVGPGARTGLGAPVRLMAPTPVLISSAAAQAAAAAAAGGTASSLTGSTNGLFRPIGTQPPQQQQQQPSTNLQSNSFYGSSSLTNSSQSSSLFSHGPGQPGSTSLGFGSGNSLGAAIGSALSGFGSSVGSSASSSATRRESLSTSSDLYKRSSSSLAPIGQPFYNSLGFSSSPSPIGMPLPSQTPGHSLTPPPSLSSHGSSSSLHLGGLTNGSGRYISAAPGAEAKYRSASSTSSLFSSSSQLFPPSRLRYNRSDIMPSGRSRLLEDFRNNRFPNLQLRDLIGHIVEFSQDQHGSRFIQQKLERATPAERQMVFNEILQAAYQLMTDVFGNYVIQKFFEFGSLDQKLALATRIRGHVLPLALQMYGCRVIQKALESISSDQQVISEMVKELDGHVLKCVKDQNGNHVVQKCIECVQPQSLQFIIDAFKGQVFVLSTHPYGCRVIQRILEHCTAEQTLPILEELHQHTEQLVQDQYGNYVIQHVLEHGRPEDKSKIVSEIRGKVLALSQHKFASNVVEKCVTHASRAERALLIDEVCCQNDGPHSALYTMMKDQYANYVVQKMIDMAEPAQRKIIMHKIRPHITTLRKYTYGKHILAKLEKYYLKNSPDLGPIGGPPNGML
# UniProt P11908: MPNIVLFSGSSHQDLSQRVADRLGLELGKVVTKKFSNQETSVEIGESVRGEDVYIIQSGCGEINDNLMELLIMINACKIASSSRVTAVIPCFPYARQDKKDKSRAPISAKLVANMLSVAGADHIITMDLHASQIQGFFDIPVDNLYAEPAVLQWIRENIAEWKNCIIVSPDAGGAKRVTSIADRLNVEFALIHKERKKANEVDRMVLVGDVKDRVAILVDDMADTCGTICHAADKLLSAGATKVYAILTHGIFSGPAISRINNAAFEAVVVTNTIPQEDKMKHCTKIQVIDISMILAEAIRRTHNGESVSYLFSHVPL
# UniProt Q15185: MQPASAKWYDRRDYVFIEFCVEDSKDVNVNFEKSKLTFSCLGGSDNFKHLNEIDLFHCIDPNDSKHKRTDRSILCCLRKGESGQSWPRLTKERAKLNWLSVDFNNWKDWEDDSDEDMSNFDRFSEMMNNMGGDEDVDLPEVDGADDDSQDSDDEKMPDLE
# UniProt Q3MIT2: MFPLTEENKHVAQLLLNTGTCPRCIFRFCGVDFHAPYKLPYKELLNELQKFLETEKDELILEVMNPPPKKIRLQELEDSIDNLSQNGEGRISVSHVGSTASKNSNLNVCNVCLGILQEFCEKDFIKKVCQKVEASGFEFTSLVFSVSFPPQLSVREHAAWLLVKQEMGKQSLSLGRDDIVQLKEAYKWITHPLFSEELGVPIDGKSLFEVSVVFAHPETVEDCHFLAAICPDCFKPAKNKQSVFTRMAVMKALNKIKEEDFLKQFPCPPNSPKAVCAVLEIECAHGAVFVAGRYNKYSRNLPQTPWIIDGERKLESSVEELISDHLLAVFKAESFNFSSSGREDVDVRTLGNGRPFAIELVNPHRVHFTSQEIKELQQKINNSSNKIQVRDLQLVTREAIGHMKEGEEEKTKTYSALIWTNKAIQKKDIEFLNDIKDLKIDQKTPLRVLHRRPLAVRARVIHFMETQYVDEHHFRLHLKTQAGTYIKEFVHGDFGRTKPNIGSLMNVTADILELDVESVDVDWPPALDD
# UniProt P49720: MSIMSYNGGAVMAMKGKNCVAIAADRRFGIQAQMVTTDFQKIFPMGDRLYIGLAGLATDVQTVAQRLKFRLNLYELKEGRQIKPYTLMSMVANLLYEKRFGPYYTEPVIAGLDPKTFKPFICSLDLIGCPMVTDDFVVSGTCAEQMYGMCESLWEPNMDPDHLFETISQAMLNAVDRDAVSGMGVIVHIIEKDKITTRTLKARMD
# UniProt Q5JSZ5: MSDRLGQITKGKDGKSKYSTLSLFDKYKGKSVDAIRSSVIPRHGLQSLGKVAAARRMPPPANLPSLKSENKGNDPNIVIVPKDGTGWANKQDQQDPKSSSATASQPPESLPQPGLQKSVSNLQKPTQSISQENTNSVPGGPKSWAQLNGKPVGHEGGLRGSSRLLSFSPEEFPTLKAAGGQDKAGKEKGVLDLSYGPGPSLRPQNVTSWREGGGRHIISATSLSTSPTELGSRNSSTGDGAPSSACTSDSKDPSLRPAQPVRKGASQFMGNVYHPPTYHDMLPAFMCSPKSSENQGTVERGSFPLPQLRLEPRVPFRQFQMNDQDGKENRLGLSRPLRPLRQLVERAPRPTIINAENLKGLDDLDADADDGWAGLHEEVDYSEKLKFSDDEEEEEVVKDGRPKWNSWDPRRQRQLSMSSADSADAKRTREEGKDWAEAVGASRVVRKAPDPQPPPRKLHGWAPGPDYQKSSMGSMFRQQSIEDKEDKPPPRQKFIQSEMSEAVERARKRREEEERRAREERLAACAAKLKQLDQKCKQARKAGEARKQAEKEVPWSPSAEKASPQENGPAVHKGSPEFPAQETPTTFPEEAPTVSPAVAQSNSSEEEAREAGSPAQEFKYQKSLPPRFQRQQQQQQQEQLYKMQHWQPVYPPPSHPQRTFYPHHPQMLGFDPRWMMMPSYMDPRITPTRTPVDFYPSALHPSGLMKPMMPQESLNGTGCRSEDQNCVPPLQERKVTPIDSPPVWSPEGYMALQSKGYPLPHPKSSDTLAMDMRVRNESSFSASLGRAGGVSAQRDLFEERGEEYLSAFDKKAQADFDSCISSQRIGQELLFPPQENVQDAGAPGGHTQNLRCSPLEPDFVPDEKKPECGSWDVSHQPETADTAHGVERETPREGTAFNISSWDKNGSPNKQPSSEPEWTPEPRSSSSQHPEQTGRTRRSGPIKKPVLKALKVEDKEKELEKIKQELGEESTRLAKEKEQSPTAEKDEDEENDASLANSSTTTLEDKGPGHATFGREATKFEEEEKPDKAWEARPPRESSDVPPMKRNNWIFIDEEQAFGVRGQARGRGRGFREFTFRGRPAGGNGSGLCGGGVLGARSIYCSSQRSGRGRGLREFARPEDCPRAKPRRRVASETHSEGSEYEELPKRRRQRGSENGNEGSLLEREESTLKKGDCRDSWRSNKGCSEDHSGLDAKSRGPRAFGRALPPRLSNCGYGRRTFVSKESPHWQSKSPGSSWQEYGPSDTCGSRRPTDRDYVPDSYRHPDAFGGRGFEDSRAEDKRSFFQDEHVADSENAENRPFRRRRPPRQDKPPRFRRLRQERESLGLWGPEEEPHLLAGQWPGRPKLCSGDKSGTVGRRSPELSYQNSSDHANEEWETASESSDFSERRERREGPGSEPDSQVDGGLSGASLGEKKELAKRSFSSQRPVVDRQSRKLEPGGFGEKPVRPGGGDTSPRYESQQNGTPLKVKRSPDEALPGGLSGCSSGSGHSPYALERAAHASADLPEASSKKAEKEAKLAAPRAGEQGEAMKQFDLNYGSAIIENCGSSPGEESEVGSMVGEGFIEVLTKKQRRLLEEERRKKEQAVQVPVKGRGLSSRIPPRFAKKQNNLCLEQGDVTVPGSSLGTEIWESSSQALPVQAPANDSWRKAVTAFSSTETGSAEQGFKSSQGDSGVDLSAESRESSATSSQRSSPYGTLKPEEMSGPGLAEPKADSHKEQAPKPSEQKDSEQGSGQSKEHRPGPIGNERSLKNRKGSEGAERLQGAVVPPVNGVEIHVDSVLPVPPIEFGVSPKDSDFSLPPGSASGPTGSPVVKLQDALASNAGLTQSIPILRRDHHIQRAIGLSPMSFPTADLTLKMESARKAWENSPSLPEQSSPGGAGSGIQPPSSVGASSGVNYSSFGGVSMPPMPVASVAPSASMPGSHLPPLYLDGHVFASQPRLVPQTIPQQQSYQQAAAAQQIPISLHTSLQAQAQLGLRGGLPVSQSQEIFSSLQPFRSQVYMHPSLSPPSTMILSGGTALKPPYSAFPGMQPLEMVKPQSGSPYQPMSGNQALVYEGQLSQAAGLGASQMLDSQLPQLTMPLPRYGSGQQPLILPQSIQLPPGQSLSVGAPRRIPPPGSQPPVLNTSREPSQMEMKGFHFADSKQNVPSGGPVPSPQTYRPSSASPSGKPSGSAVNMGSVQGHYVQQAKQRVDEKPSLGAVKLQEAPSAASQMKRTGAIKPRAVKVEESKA
# Some of the results follow.
# How the values were obtained:
# Assay in all cases: log2 fold change, soluble protein after heating vs DMSO (PISA); higher = thermal stabilisation; K562 lysate, 10 uM; active = over 0.2 and 3.5 SD of the protein, either way, in both replicates (recomputed)
# vemurafenib = compound: CCCS(=O)(=O)Nc1ccc(F)c(C(=O)c2c[nH]c3ncc(-c4ccc(Cl)cc4)cc23)c1F [vemurafenib]
# Procedure, shortened: (§1)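 K562 pellets were dounce-homogenised in PBS pH 7.4 with 1 mM MgCl2, and the crude extract at 1 mg/mL protein was treated with 10 μM compound for 30 min. Aliquots were heated for 3 min across 48°C-58°C, pooled, and brought to 0.5% NP-40 at 4°C; soluble protein was the supernatant after 21,000xg for 90 min. Soluble protein was quantified by TMTpro 16plex LC-MS/MS with channel sums equalised, and reported as log2 fold change in thermal stability against DMSO controls, with values from duplicates.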
# [1] = compound: CCCS(=O)(=O)Nc1ccc(F)c(C(=O)c2c[nH]c3ncc(Cl)cc23)c1F
# Procedure, shortened: as §1
# barasertib = compound: CCN(CCCOc1ccc2c(Nc3cc(CC(=O)Nc4cccc(F)c4)[nH]n3)ncnc2c1)CCOP(=O)(O)O [barasertib]
# Procedure, shortened: as §1
# [2] = compound: CC[C@@H]1C(=O)N(C)c2cnc(Nc3ccc(C(=O)NC4CCN(C)CC4)cc3OC)nc2N1C1CCCC1
# Procedure, shortened: as §1
# volasertib = compound: CC[C@@H]1C(=O)N(C)c2cnc(Nc3ccc(C(=O)N[C@H]4CC[C@H](N5CCN(CC6CC6)CC5)CC4)cc3OC)nc2N1C(C)C [volasertib]
# Procedure, shortened: as §1
# [3] = compound: CCn1c(C(=O)N(C2CC2)C2CC2)cc2c3c(ncn3C)c(Nc3cc(C)n(C)n3)nc21
# Procedure, shortened: as §1
# [4] = compound: CCn1cc(-c2ccnc3[nH]c(-c4cccc(CN(C)C)c4)cc23)c(-c2ccc(NC(=O)N(C)C)cc2)n1
# Procedure, shortened: as §1
# [5] = compound: CN1CCC(CNc2ccc3ncc(-c4cccc(OC(F)(F)F)c4)n3n2)CC1
# Procedure, shortened: as §1
# saracatinib = compound: CN1CCN(CCOc2cc(OC3CCOCC3)c3c(Nc4c(Cl)ccc5c4OCO5)ncnc3c2)CC1 [saracatinib]
# Procedure, shortened: as §1
# sotrastaurin = compound: CN1CCN(c2nc(C3=C(c4c[nH]c5ccccc45)C(=O)NC3=O)c3ccccc3n2)CC1 [sotrastaurin]
# Procedure, shortened: as §1
# alvocidib = compound: CN1CC[C@H](c2c(O)cc(O)c3c(=O)cc(-c4ccccc4Cl)oc23)[C@H](O)C1 [alvocidib]
# Procedure, shortened: as §1
# Tubastatin A = compound: CN1CCc2c(c3ccccc3n2Cc2ccc(C(=O)NO)cc2)C1 [Tubastatin A]
# Procedure, shortened: as §1
# [6] = compound: CNC(=O)C1=CC=CC=C1NC2=NC(=NC=C2Cl)NC3=C(C=C(C=C3)N4CCOCC4)OC
# Procedure, shortened: as §1
# defactinib = compound: CNC(=O)c1ccc(Nc2ncc(C(F)(F)F)c(NCc3nccnc3N(C)S(C)(=O)=O)n2)cc1 [defactinib]
# Procedure, shortened: as §1
# [7] = compound: CNc1nc(-c2ccc3c(N)n[nH]c3c2)cc(N2C[C@@H](C(=O)NC3CCCCC3)CC[C@H]2C)n1
# Procedure, shortened: as §1
# encorafenib = compound: COC(=O)N[C@@H](C)CNc1nccc(-c2cn(C(C)C)nc2-c2cc(Cl)cc(NS(C)(=O)=O)c2F)n1 [encorafenib]
# Procedure, shortened: as §1
# [8] = compound: COC(=O)[C@H](CCSC)NC(=O)C1=C(C=C(C=C1)NC[C@H](CS)N)C2=CC=CC=C2
# Procedure, shortened: as §1
# alisertib = compound: COc1cc(Nc2ncc3c(n2)-c2ccc(Cl)cc2C(c2c(F)cccc2OC)=NC3)ccc1C(=O)O [alisertib]
# Procedure, shortened: as §1
# [9] = compound: COc1cc2nc(-c3cc(F)ccc3O)nc(N[C@@H]3CNC[C@H]3C(C)(C)O)c2cc1OC
# Procedure, shortened: as §1
# gefitinib = compound: COc1cc2ncnc(Nc3ccc(F)c(Cl)c3)c2cc1OCCCN1CCOCC1 [gefitinib]
# Procedure, shortened: as §1
Target,log2 fold change (vemurafenib),log2 fold change [1],log2 fold change (barasertib),log2 fold change [2],log2 fold change (volasertib),log2 fold change [3],log2 fold change [4],log2 fold change [5],log2 fold change (saracatinib),log2 fold change (sotrastaurin),log2 fold change (alvocidib),log2 fold change (Tubastatin A),log2 fold change [6],log2 fold change (defactinib),log2 fold change [7],log2 fold change (encorafenib),log2 fold change [8],log2 fold change (alisertib),log2 fold change [9],log2 fold change (gefitinib)
PSMD9 (UniProt O00233),inactive: 0.002,inactive: 0.039,inactive: -0.023,inactive: 0.034,inactive: -0.002,inactive: -0.001,inactive: -0.122,inactive: 0.041,inactive: 0.004,inactive: 0.004,inactive: -0.011,inactive: -0.007,inactive: 0.038,inactive: -0.018,inactive: 0.028,inactive: -0.013,inactive: -0.036,inactive: -0.024,inactive: -0.028,inactive: -0.02
PTS (UniProt Q03393),active: 0.33,inactive: 0.044,inactive: 0.051,inactive: 0.054,inactive: 0.014,inactive: 0.02,inactive: -0.045,inactive: 0.01,inactive: 0.104,inactive: 0.057,inactive: -0.055,inactive: -0.007,inactive: 0.043,inactive: -0.059,inactive: 0.015,inactive: 0.1,inactive: -0.022,inactive: -0.009,inactive: 0.016,inactive: 0.121
PUM2 (UniProt Q8TB72),inactive: -0.039,inactive: 0.007,inactive: 0.213,inactive: 0.134,inactive: -0.04,inactive: 0.171,inactive: 0.094,inactive: -0.13,inactive: -0.085,inactive: -0.022,inactive: -0.031,inactive: -0.022,inactive: -0.069,inactive: 0.054,inactive: 0.065,inactive: 0.062,inactive: 0.02,inactive: 0.031,inactive: 0.035,inactive: 0.049
PRPS2 isoform 2 (UniProt P11908),inactive: -0.004,inactive: -0.018,inactive: -0.005,inactive: -0.066,inactive: 0.002,inactive: 0.02,inactive: 0.037,inactive: 0.046,inactive: -0.006,inactive: -0.014,inactive: 0.01,inactive: -0.022,inactive: -0.017,inactive: -0.028,inactive: -0.032,inactive: -0.009,inactive: -0.029,inactive: 0.004,inactive: 0.005,inactive: -0.021
PTGES3 (UniProt Q15185),inactive: -0.017,inactive: 0.019,inactive: -0.016,inactive: 0.04,inactive: -0.005,inactive: -0.004,inactive: 0.109,inactive: -0.021,inactive: -0.013,inactive: -0.033,inactive: 0.018,inactive: 0.004,inactive: 0.009,inactive: 0.002,inactive: 0.039,inactive: -0.035,inactive: -0.021,inactive: -0.011,inactive: -0.006,inactive: -0.022
PUS10 (UniProt Q3MIT2),inactive: 0.026,inactive: 0.017,inactive: -0.003,inactive: 0.042,inactive: 0.022,inactive: -0.043,inactive: 0.045,inactive: -0.138,inactive: -0.014,inactive: 0.009,inactive: 0.033,inactive: -0.035,inactive: 0.076,inactive: -0.064,inactive: 0.009,inactive: -0.006,inactive: -0.029,inactive: 0.039,inactive: -0.036,inactive: -0.009
PSMB3 (UniProt P49720),inactive: -0.005,inactive: -0.018,inactive: -0.079,inactive: -0.021,inactive: 0.043,inactive: -0.055,inactive: -0.024,inactive: 0.089,inactive: 0.001,inactive: 0.015,inactive: -0.008,inactive: 0.019,inactive: -0.009,inactive: 0.018,inactive: 0.003,inactive: 0.003,inactive: -0.013,inactive: -0.014,inactive: 0.012,inactive: 0
PRRC2B (UniProt Q5JSZ5),inactive: 0.022,inactive: -0.021,inactive: -0.081,inactive: 0.109,inactive: -0.012,inactive: 0.02,inactive: 0.096,inactive: -0.018,inactive: 0.032,inactive: 0,inactive: 0.043,inactive: -0.033,inactive: 0.027,inactive: 0.016,inactive: 0.043,inactive: 0.097,inactive: -0.053,inactive: 0.01,inactive: 0.024,inactive: -0.065

# Reprinted from the listing (2 entries):
Target,log2 fold change (vemurafenib),log2 fold change [1],log2 fold change (barasertib),log2 fold change [2],log2 fold change (volasertib),log2 fold change [3],log2 fold change [4],log2 fold change [5],log2 fold change (saracatinib),log2 fold change (sotrastaurin),log2 fold change (alvocidib),log2 fold change (Tubastatin A),log2 fold change [6],log2 fold change (defactinib),log2 fold change [7],log2 fold change (encorafenib),log2 fold change [8],log2 fold change (alisertib),log2 fold change [9],log2 fold change (gefitinib)
PUM2 (UniProt Q8TB72),inactive: -0.039,inactive: 0.007,inactive: 0.213,inactive: 0.134,inactive: -0.04,inactive: 0.171,inactive: 0.094,inactive: -0.13,inactive: -0.085,inactive: -0.022,inactive: -0.031,inactive: -0.022,inactive: -0.069,inactive: 0.054,inactive: 0.065,inactive: 0.062,inactive: 0.02,inactive: 0.031,inactive: 0.035,inactive: 0.049
PRPS2 isoform 2 (UniProt P11908),inactive: -0.004,inactive: -0.018,inactive: -0.005,inactive: -0.066,inactive: 0.002,inactive: 0.02,inactive: 0.037,inactive: 0.046,inactive: -0.006,inactive: -0.014,inactive: 0.01,inactive: -0.022,inactive: -0.017,inactive: -0.028,inactive: -0.032,inactive: -0.009,inactive: -0.029,inactive: 0.004,inactive: 0.005,inactive: -0.021
